Values from PubChem BioAssay AID504793 (Drosophila RNAi Screening Center, 2011)

Aim: 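Knock-downs allowing continued mitosis even though DNA is damaged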 (primary screen)
System: Drosophila S2R+ cells
Reagents: long dsRNA against Drosophila genes, about 0.25 µg dsRNA per well
Timing: 4 days of dsRNA, then 4 hours of drug before read-out
Treatment: doxorubicin 0.5 µM for 4 hours to cause double-strand breaks, in cells also given a low, harmless dose of dsRNA against nbs to sensitise the assay
Detection: 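Mitotic index as the number of phospho-histone H3-positive cells in each well following doxorubicin, given as raw counts without normalisation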
Direction: mitotic cells: higher = more cells in mitosis, weaker G2 arrest
Hit rule: 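a call needs confirmation in secondary tests, with other dsRNAs and a check of mitotic timing without damage, not just a high primary count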
Calls: active = confirmed in follow-up tests; inactive = not confirmed
In all, the deposit lists about 23,000 reagents; shown is an unselected part of those that have a named target and a result. Of all reagents, 62 (0.27%) got an active call. 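Calls come from follow-up tests whose scores are not deposited, so confirmed genes may have low counts here; counts are not normalised per plate.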 The raw values are shown without normalisation. Entries without a mark were called inactive.

{"Target gene": "spz", "dsRNA": "DRSC17065", "mitotic cells, replicate 1": 7}
{"Target gene": "spz", "dsRNA": "DRSC28820", "mitotic cells, replicate 1": 1}
{"Target gene": "spz", "dsRNA": "DRSC39151", "mitotic cells, replicate 1": 9}
{"Target gene": "Nelf-A", "dsRNA": "DRSC15903", "mitotic cells, replicate 1": 9}
{"Target gene": "CG11975", "dsRNA": "DRSC14452", "mitotic cells, replicate 1": 5}
{"Target gene": "brn", "dsRNA": "DRSC18746", "mitotic cells, replicate 1": 1}
{"Target gene": "B52", "dsRNA": "DRSC14121", "mitotic cells, replicate 1": 13}
{"Target gene": "B52", "dsRNA": "DRSC25482", "mitotic cells, replicate 1": 3}
{"Target gene": "Tom70", "dsRNA": "DRSC02990", "mitotic cells, replicate 1": 2, "mitotic cells, replicate 2": 19}
{"Target gene": "CG33093", "dsRNA": "DRSC15775", "mitotic cells, replicate 1": 7}
{"Target gene": "CG11816", "dsRNA": "DRSC19428", "mitotic cells, replicate 1": 11}
{"Target gene": "CG11816", "dsRNA": "DRSC23612", "mitotic cells, replicate 1": 7}
{"Target gene": "CG30099", "dsRNA": "DRSC07039", "mitotic cells, replicate 1": 9}
{"Target gene": "CG30099", "dsRNA": "DRSC26526", "mitotic cells, replicate 1": 5}

An excerpt from above, reduced to “mitotic cells, replicate 1”:
CG11975 [DRSC14452] = 5
brn [DRSC18746] = 1
